Experiment [1] deals with T1, hexa-His-tagged CrODA16 (CrODA16-HT) (Chlamydomonas reinhardtii, UniProt Q3Y8L7 1-446).
T1 construct: ODA16, Chlamydomonas reinhardtii; Bait on nickel resin
T1 sequence (looked up): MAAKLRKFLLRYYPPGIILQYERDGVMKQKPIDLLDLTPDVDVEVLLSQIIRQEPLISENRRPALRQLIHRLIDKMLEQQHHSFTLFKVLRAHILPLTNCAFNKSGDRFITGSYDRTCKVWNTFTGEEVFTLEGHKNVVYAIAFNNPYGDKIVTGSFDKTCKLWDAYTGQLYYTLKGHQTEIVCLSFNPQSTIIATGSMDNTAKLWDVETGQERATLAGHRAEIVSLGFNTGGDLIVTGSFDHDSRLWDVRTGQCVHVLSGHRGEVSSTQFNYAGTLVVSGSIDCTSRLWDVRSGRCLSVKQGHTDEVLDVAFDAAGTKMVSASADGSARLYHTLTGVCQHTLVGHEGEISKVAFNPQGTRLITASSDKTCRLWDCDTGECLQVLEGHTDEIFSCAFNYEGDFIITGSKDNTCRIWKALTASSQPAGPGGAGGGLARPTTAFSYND
As to the kind of experiment: pull-down; CrODA16-HT immobilised on nickel resin; two preys added together (CrIFT46 with CrIDA3, also at 3:1 excess of CrIFT46; CrIFT46 with CrArl3), beside each prey alone; both purified.

Sequences of proteins named here, by UniProt entry; tags and fusion partners are left off. A change or cut given only in a name is not applied to a line headed by its entry.
UniProt A8ISN6: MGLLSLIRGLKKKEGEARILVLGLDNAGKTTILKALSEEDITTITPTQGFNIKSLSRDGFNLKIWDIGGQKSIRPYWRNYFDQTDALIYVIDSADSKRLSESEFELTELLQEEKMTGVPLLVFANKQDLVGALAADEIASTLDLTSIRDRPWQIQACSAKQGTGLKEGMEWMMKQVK

Experiment [2] addresses T2, full-length CrODA16 (CrODA16fl) (Chlamydomonas reinhardtii, UniProt Q3Y8L7 1-446).
T2 construct: ODA16, Chlamydomonas reinhardtii, full length (N-terminal domain residues 1-80, C-terminal beta-propeller residues 80-445); it may be the same protein as CrODA16-HT
T2 sequence (looked up): T1 sequence (looked up)
Put plainly: SEC; Superose 6 Increase 10/300 column; SDS-PAGE of the peaks; both purified. (In general: SEC sorts molecules by how far they enter the pores of the column.)

Experiment [3] has as its target T1, hexa-His-tagged CrODA16 (CrODA16-HT). As to the kind of experiment: pull-down; CrODA16-HT immobilised on nickel resin; CrArl3 variant reloaded with 1 mM MgCl2 and 1 mM nucleotide (GTP for Q70L, GDP for T30N); both purified.
Experiment [4] concerns the target GST-CrArl3_Q70L (Chlamydomonas reinhardtii) (UniProt A8ISN6). As to the kind of experiment: pull-down; GST-tagged bait (10 μM) immobilised on GSH resin, prey 20–30 μM, 1 h 4 °C; 10 mM HEPES pH 7.5, 200 mM NaCl, 2 mM MgCl2, 1 mM DTT; eluted with 33 mM reduced glutathione, SDS-PAGE; both purified.
For experiment [5], the target named is GST-CrArl3 (variant not named) (Chlamydomonas reinhardtii) (UniProt A8ISN6). Put plainly: pull-down; competitive binding (titration) assay: GST-tagged bait (10 μM) pre-complexed with CrODA16 (20 μM) on GSH resin, washed, then untagged competitor at rising concentrations, 1 h 4 °C; eluted with 33 mM glutathione, SDS-PAGE; both purified.
Experiment [6] deals with GST-CrArl3_Q70L (Chlamydomonas reinhardtii) (UniProt A8ISN6). Put plainly: condition: prey 20–30 μM, bait 10 μM (general pull-down methods); pull-down; GST-tagged bait (10 μM) immobilised on GSH resin, prey 20–30 μM, 1 h 4 °C; 10 mM HEPES pH 7.5, 200 mM NaCl, 2 mM MgCl2, 1 mM DTT; eluted with 33 mM reduced glutathione, SDS-PAGE; both purified.

Among the data in PMC11879689, “Integrative in silico and biochemical analyses demonstrate direct Arl3-mediated ODA16 release from the intraflagellar transport machinery” (The Journal of Biological Chemistry, 2025) are binding values, retold here.

These are yes or no findings as the source states them, for the method shown. For some of these results: Binding calls can cover weak binding; strength is not graded here. For some of these results: Sequences can lack the tags named with a protein.

For the molecule “CrArl3 (untagged; variant not named) (from UniProt A8ISN6) (enzyme)”, the binding result in experiment [1] and in experiment [2] was “binds” each time.

Regarding “CrArl3_T30N (GDP-locked) (from UniProt A8ISN6) (enzyme)”, the binding result in experiment [3] is listed as “binds”.

B1: CrODA16 C-terminal β-propeller, CrODA16C(80-423) (domain or fragment, UniProt Q3Y8L7 80-423)
chain: QHHSFTLFKVLRAHILPLTNCAFNKSGDRFITGSYDRTCKVWNTFTGEEVFTLEGHKNVVYAIAFNNPYGDKIVTGSFDKTCKLWDAYTGQLYYTLKGHQTEIVCLSFNPQSTIIATGSMDNTAKLWDVETGQERATLAGHRAEIVSLGFNTGGDLIVTGSFDHDSRLWDVRTGQCVHVLSGHRGEVSSTQFNYAGTLVVSGSIDCTSRLWDVRSGRCLSVKQGHTDEVLDVAFDAAGTKMVSASADGSARLYHTLTGVCQHTLVGHEGEISKVAFNPQGTRLITASSDKTCRLWDCDTGECLQVLEGHTDEIFSCAFNYEGDFIITGSKDNTCRIWKALTASS
For the molecule B1, in experiment [4], the binding entry is on record as “binds”.

B2: full-length CrODA16 (CrODA16fl) (protein, UniProt Q3Y8L7 1-446)
chain: T1 sequence (looked up)
For B2, the binding entry in experiment [5] and in experiment [4] was “binds” throughout.

B3: CrODA16 N-terminal domain, CrODA16N(1-80) (domain or fragment, UniProt Q3Y8L7 1-80)
chain: MAAKLRKFLLRYYPPGIILQYERDGVMKQKPIDLLDLTPDVDVEVLLSQIIRQEPLISENRRPALRQLIHRLIDKMLEQQ
With B3, the binding entry in experiment [6] is on record as “no binding”.
